# Test results reported in patent publication US20200040081A1.
# Sequences of proteins named here, by UniProt entry; tags and fusion partners are left off.
# UniProt Q6DKI7: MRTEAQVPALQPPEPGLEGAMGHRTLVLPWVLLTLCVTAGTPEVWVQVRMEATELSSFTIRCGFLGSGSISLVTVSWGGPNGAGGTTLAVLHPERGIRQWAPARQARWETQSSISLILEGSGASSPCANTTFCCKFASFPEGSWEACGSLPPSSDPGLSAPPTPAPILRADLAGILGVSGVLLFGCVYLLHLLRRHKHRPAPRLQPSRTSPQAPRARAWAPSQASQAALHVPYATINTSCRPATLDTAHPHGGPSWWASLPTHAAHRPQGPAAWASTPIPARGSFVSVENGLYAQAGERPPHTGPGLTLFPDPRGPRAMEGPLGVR
# Substitutions are numbered along the chain they refer to. These are yes or no findings as the source states them, for the method shown. Some results given as binding are weak or reduced against the parent protein; the word gives no strength.
# B1: Antibody 15 (antibody, V domains shown)
# VH: EVQLVESGGGLVQPGRSLRLSCTASGFTFGDVAMSWFRQAPGKGLEWVGYIGSKAYGGETEYTASVKGRFTISRDGSKSIAYLQMNSLKTEDTAVYYCARAGHSYGSIASNWFDPWGQGTLVTVSS
# VL: DIQMTQSPSSLSASVGDRVTITCRASQSISSYLNWYQQKPGKAPKLLIYGASSLQSGVPSRFSGSGSGTDFTLTISSLQPEDFATYYCQQGFYTPWTFGGGTKVEIK
# B2: Antibody 33 (antibody, V domains shown)
# VH: QVQLVQSGAEVKKPGSSVKVSCKASGGTFGNYAISWVRQAPGQGLEWMGGIIPIPGIANYAQKFQGRVTITADESTSTAYMELSSLRSEDTAVYYCARDTGRGYTRHFWFDPWGQGTLVTVSS
# VL: DIQMTQSPSSLSASVGDRVTITCRASQSISSYLNWYQQKPGKAPKLLIYAASSLQSGVPSRFSGSGSGTDFTLTISSLQPEDFATYYCQQSDILYTFGGGTKVEIK
# B3: Antibody 34 (antibody, V domains shown)
# VH: B2 VH with G30S, N31S, Y32A, I52F, P55S, I57H
# VL: B2 VL
# B4: Antibody 46 (antibody, V domains shown)
# VH: EVQLVESGGGLVQPGRSLRLSCTASGFTFGDYAMSWFRQAPGKGLEWVGFIGSKAYGGTTEYTASVKGRFTISRDGSKSIAYLQMNSLKTEDTAVYYCARGPRRYTYGMDVWGQGTTVTVSS
# VL: B2 VL with D92S, I93T, L94P, Y95L
# B5: Antibody 58 (antibody, V domains shown)
# VH: B4 VH with A55F, T59E
# VL: B2 VL with D92S, I93T, L94P, Y95L
# B6: Antibody 35 (antibody, V domains shown)
# VH: B2 VH with G30S, N31S, Y32A, G50N, P55V
# VL: B2 VL
# B7: Antibody 36 (antibody, V domains shown)
# VH: B2 VH with G30A, N31T, I52F, I54L, P55S, I57T
# VL: B2 VL
# B8: Antibody 44 (antibody, V domains shown)
# VH: QVQLVQSGAEVKKPGSSVKVSCKASGGTFDNYYISWVRQAPGQGLEWMGGIFPIFGTANYAQKFQGRVTITADESTSTAYMELSSLRSEDTAVYYCAREVGHYSGSPYYMDVWGKGTTVTVSS
# VL: DIQMTQSPSTLSASVGDRVTITCRASQSINSWLAWYQQKPGKAPKLLISDASSLESGVPSRFSGSGSGTEFTLTISSLQPDDFATYYCQQVGPYLTFGGGTKVEIK
# B9: Antibody 2 (antibody, V domains shown)
# VH: EVQLVESGGGLVKPGGSLRLSCAASGFTFSEYTMNWVRQAPGKGLEWVSAIVGSGDSTYYADSVKGRFTISRDNSKNTLYLQMNSLRAEDTAVYYCAKDYSSGDWIDYGMDVWGQGTTVTVSS
# VL: DIQMTQSPSSLSASVGDRVTITCQASQDISNYLNWYQQKPGKAPKLLIYDASNLATGVPSRFSGSGSGTDFTFTISSLQPEDIATYYCQQFDLLPPTFGGGTKVEIK
# B10: Antibody 5 (antibody, V domains shown)
# VH: B9 VH with V5L, K13Q, E31D, T33A, N35I, V52S, S54G, D56E
# VL: B9 VL
# Target: human CD112R over-expressed on Jurkat cells (human) (UniProt Q6DKI7)
# Assay: flow cytometry on Jurkat-CD112R OE cells
row,binding,Binder
1,binds,B1
2,binds,B2
3,binds,B3
4,binds,B4
5,binds,B5
6,binds,B6
7,binds,B7
8,binds,B8
9,binds,B9
10,binds,B10
